Our source for the binding values is publication PMC11183318.

The chains behind the UniProt entries cited, without tags or fusion partners.
UniProt Q9BR11: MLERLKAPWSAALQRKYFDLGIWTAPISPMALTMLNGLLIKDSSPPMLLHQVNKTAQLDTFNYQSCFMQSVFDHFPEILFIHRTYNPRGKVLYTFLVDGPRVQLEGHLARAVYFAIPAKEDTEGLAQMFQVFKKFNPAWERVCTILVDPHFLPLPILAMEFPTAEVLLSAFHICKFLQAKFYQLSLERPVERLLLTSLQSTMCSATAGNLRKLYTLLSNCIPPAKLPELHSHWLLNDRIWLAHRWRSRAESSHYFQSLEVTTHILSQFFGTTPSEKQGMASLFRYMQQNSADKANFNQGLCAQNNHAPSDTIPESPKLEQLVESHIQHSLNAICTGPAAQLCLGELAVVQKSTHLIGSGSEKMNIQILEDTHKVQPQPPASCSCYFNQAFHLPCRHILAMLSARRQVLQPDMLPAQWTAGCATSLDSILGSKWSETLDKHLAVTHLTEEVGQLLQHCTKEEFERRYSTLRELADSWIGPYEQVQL
UniProt P19474: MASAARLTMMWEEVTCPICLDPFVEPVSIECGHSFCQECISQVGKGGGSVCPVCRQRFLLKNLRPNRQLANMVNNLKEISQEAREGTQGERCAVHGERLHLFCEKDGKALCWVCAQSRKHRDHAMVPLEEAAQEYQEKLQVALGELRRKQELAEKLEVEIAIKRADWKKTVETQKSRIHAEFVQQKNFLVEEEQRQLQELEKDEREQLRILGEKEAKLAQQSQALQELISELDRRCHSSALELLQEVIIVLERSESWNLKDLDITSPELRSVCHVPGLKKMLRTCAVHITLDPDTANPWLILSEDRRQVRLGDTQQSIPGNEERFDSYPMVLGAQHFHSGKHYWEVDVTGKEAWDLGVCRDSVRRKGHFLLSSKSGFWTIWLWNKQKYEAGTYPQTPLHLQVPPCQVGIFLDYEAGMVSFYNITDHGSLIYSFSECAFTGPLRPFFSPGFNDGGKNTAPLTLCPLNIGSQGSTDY

In the test the target is FLAG-ZSWIM1 (zinc finger SWIM-type containing 1) (human) (UniProt Q9BR11). The test is described as follows: co-IP; anti-FLAG antibody IP (IgG control) from EBC buffer lysate of H1299 cells stably overexpressing FLAG-ZSWIM1 and transiently transfected with HA-TRIM21; Protein A/G agarose, 4 °C overnight; detection by Western blot.

No constants are given. Whether binding was seen depends on the method and setting. In cells and extracts the contact can be indirect. Some results given as binding are weak or reduced against the parent protein; the word gives no strength.

As to “HA-TRIM21 (tripartite motif protein 21) (from UniProt P19474 1-475)”, the binding result is “binds”.
